{"source": "ChEMBL document CHEMBL4513154", "about": "“CO-ADD screening of Jain University (India) compounds”", "note": "This is one part of the list. Results with a measured potency or affinity are listed apart."}
{"tested_on": "Acinetobacter baumannii", "conditions": "Concentration 32 ug.mL-1; ASSAY_TEST Inhibition of Bacterial Growth; detection method Absorption (OD600); MEDIA CAMHB; plate type 384well; NBS; CORNING #3640; time 18 hr", "units": {"Inhibition": "%"}}
{"smiles": "N#Cc1ccccc1-c1ccc(Cn2c(-c3cscn3)nc3ccccc32)cc1", "Inhibition": -1.38}
{"smiles": "CC(C)c1ccc(Cn2c(-c3cscn3)nc3c(Cl)cccc32)cc1", "Inhibition": 2.59}
{"smiles": "N#Cc1ccccc1-c1ccc(Cn2c(-c3cscn3)nc3c(Cl)cccc32)cc1", "Inhibition": 6.28}
{"smiles": "Nc1nc(Nc2ccccc2)sc1-c1nc2ccccc2c(=O)n1-c1ccc(Cl)cc1", "Inhibition": -0.07}
{"smiles": "N=C(Nc1ccccc1Cl)c1cscn1", "Inhibition": 12.72}
{"smiles": "CCc1ccc(Nc2nc(N)c(-c3nc4ccccc4c(=O)n3-c3ccc(Cl)cc3)s2)cc1", "Inhibition": 5.63}
{"smiles": "Nc1nc(Nc2ccc(Cl)cc2)sc1-c1nc2ccccc2c(=O)n1-c1ccccc1", "Inhibition": -6.41}
{"smiles": "Clc1cccc2[nH]c(-c3cscn3)nc12", "Inhibition": 8.5}
{"smiles": "Clc1ccc2c(c1)nc(-c1cscn1)n2Cc1ccccc1", "Inhibition": -10.04}
{"smiles": "CCc1ccc(-n2c(-c3sc(Nc4ccccc4)nc3N)nc3ccccc3c2=O)cc1", "Inhibition": 2.37}
{"smiles": "N#Cc1ccc(Cn2c(-c3cscn3)nc3c(Cl)cccc32)cc1", "Inhibition": -7.1}
{"smiles": "N=C(Nc1ccccc1)c1cscn1", "Inhibition": 14.87}
{"smiles": "Fc1cc(Cn2c(-c3cscn3)nc3c(Cl)cccc32)cc(C(F)(F)F)c1", "Inhibition": 9.98}
{"smiles": "N#Cc1ccccc1-c1ccc(Cn2c(-c3cscn3)nc3ccc(Cl)cc32)cc1", "Inhibition": -5.43}
{"smiles": "N#Cc1ccccc1-c1ccc(Cn2c(-c3cscn3)nc3cc(Cl)ccc32)cc1", "Inhibition": -8.36}
{"smiles": "Nc1nc(Nc2ccccc2)sc1-c1nc2ccccc2c(=O)n1-c1ccccc1", "Inhibition": 6.57}
{"smiles": "O=[N+]([O-])c1ccc(Cn2c(-c3cscn3)nc3ccccc32)cc1", "Inhibition": -2.78}
{"smiles": "CCc1ccc(Nc2nc(N)c(-c3nc4ccccc4c(=O)n3-c3ccccc3)s2)cc1", "Inhibition": 6.46}
{"smiles": "Clc1ccc2nc(-c3cscn3)n(Cc3ccccc3)c2c1", "Inhibition": -5.33}
{"smiles": "Cn1c(-c2cscn2)nc2cc(Cl)ccc21", "Inhibition": -5.79}
{"smiles": "Clc1cccc2c1nc(-c1cscn1)n2Cc1ccccc1", "Inhibition": -8.66}
{"smiles": "Cn1c(-c2cscn2)nc2c(Cl)cccc21", "Inhibition": -5.33}
{"smiles": "CCc1ccc(Nc2nc(N)c(-c3nc4ccccc4c(=O)n3-c3ccc(CC)cc3)s2)cc1", "Inhibition": -1.27}
